According to PubChem BioAssay AID540276 (National Center for Advancing Translational Sciences (NCATS), 2011):
Where “and” joins values, the source holds several entries; their conditions need not be identical. Equal values may be shown once. Screen size: about 300,000 compounds; about 5,400 (1.8%) were called active. Inconclusive means that the source gave no clear call. Such entries were picked first, then a sample of the others. Calls come from the whole dose curve; tested in HEK293 cells. Potencies beside an inconclusive call are fits to weak or partial responses and may not hold up.

Experiment: qHTS for inhibitors of binding or entry into cells for Marburg Virus
Conditions: Marburg virus pseudotyped entry inhibition, cell reporter; activity change, negative = inhibition: at 37.8 µM (top of the series) unless noted
% is set by controls: 0 for no effect and ±100 for the full control effect; potency is the fitted concentration of half-maximal effect.

SMILES	activity change, negative = inhibition	Potency
O=C(Nc1cccc(C(F)(F)F)c1)C1(c2ccccc2)CC1	inactive: 11.8%	
O=C(NNC(=O)c1cccnc1SCc1cccc([N+](=O)[O-])c1)c1ccccn1		active: 3.16 µM
CCOc1ccc(C(O)Cn2c(=N)n(CCN3CCCCC3)c3ccccc32)cc1 (stereo unspecified)		active: 18.3 µM
CCOc1ccc(NC(=O)Nc2cccc(C)n2)cc1		inactive and inconclusive: 5.01 µM [activator, partial curve]
Cc1ccc2nc(C)c3c(c2c1)N(c1ccc(F)cc1)CC3		inconclusive: 8.91 µM [inhibitor, partial curve, poor fit]
S=C1SCN(CC2CC2)CN1CC1CC1	inactive: 5.65% [at 46.1 µM]	
c1ccc(C2CCC(N3CCNCC3)CC2)cc1 (stereo unspecified)		inconclusive: 6.31 µM [activator, single point]
COc1ccc(C2Nc3ccccc3-n3c(-c4ccccc4)c4c(=O)n(C)c(=O)n(C)c4c32)cc1 (stereo unspecified)		inconclusive: 35.5 µM [inhibitor, single point]
Cc1ccc2[nH]c(=O)c(CN(Cc3nnnn3Cc3ccccc3)C3CCCC3)cc2c1		inconclusive: 20.6 µM [inhibitor, partial curve, poor fit]
O=C(CCSc1nccn1Cc1ccccc1)N1CCOCC1	inactive: 7.6%	
COc1ccccc1CNc1cc(C)ccn1		inconclusive: 35.5 µM [inhibitor, single point]
O=C(c1ccco1)c1cn(Cc2ccc(Cl)cc2)c2ccccc12		inconclusive: 35.5 µM [inhibitor, single point]
COCC(=O)N1CCCC(CNS(=O)(=O)c2ccc(OC)cc2)C1 (stereo unspecified)	inactive: 12.6% [at 46.1 µM]	
CCC(C(=O)Nc1ccccc1F)N1C(=O)CN=C(c2ccccc2)c2ccccc21 (stereo unspecified)		inconclusive: 4.47 µM [inhibitor, full curve]
COc1ccc(/C=N/N=C/c2c[nH]c(=O)c(C#N)c2Nc2ccccc2)cc1		inconclusive: 5.62 µM [activator, single point]
COc1cccc(NC(=O)Cn2c(=O)n(-c3ccccc3)c(=O)c3c4c(sc32)CCCC4)c1	inactive: 21.5% [at 46.1 µM]	
Cc1ccc(CNS(=O)(=O)c2cc3c4c(c2)CCN4C(=O)CC3)cc1	inactive: 2.99%	
COc1cccc(-c2onc3ccc(C4(C)OCCO4)cc23)c1		inconclusive: 35.5 µM [inhibitor, single point]
CCN(CC)C(=O)CSc1nc(-c2ccccc2)cc(-c2ccc(OC)cc2)c1C#N	inactive: 9.25% [at 46.1 µM]	
C=CC[n+]1c(/C=C2\C=Cc3cc(C)ccc3N2CC)ccc2ccccc21		active: 4.11 µM
Cc1ccc(C)c(NC(=O)CCc2nc3cccnc3n2Cc2cccs2)c1	inactive: 6.6% [at 46.1 µM]	
COc1ccc(C(=O)NCc2cnn(C)c2)cc1OC1CCN(C(C)C)CC1		inconclusive: 5.01 µM [inhibitor, partial curve, poor fit]

SMILES	activity change, negative = inhibition	Potency
O=C(Nc1ccc(F)cc1F)c1c(C(F)(F)F)ccnc1Oc1ccc(Cl)cc1		inconclusive: 5.01 µM [inhibitor, full curve, poor fit]
CS(=O)(=O)N1CCN(c2ccc(NC(=O)C(c3ccccc3)c3ccccc3)cc2)CC1	inactive: 18.3%	
CC(C)Oc1ccc(C(=O)Nc2ccc(C(F)(F)F)n(C)c2=O)cc1		inconclusive: 6.31 µM [inhibitor, partial curve, poor fit]
COc1ccc(OC)c(/C=C/c2c([N+](=O)[O-])c(=O)n(C)c(=O)n2C)c1	inactive: -28.8% [at 46.1 µM]	
c1coc(CNc2nc3nonc3nc2NCc2ccco2)c1		inconclusive: 0.0065 µM [inhibitor, full curve, poor fit]
O=C(Nc1nccs1)c1ccc([N+](=O)[O-])cc1	inactive: 7.78% [at 46.1 µM]	
C[C@@]12C(=O)OC(=O)[C@@]1(C)[C@H]1CC[C@@H]2O1		active: 3.26 µM
CCCCc1nc2ccccc2c(=O)n1NC(=O)c1c(O)c2c(n(CC(C)C)c1=O)CCCC2		inactive
c1cncc(CNc2nc(N3CCOCC3)nc(N3CCOCC3)n2)c1	inactive: 2.93%	
O=C(COc1ccccc1C(=O)c1cnn(-c2ccccc2)c1)Nc1ccc2ccccc2c1		inconclusive: 35.5 µM [inhibitor, single point]
COc1cccc(CN(C(=O)c2oc3ccc(Br)cc3c2C)C2CCS(=O)(=O)C2)c1 (stereo unspecified)		inconclusive: 14.1 µM [inhibitor, single point]
CCN(CC)C(=O)C1CCN(Cc2cccc(OCc3ccccc3)c2)CC1		inconclusive: 35.5 µM [inhibitor, single point]
COc1ccc(CN(Cc2ccccn2)C(=O)CN2C(=O)C(C)Oc3ccccc32)cc1 (stereo unspecified)		inconclusive: 23.1 µM [inhibitor, single point]
CCOC(=O)c1nnn(-c2nonc2N)c1COc1cc(C)c(Cl)c(C)c1		inconclusive: 0.112 µM [inhibitor, full curve, poor fit]
CC(C)C1Oc2ccccc2N(CC(=O)NC2CCCCC2)C1=O (stereo unspecified)		inconclusive: 35.5 µM [inhibitor, partial curve, poor fit]
O=C(Nc1cnc2ccccn2c1=O)c1ccc(F)cc1		inconclusive: 7.08 µM [activator, partial curve, poor fit]
CC(=O)Nc1ccc(S(=O)(=O)N2CCCC(C(=O)N3CCN(c4ccccc4)CC3)C2)cc1 (stereo unspecified)		inconclusive: 20 µM [inhibitor, partial curve, poor fit]
COC(=O)C/C=C\[C@@H](C)[C@@H](/C=N\OC[C@@H](O)[C@H]1O[C@H]2OC(C)(C)O[C@H]2[C@@H]1O)OC	inactive: 21.9% [at 14.2 µM]	
O=C(O)c1ccc(N2CCCC2=O)cc1	inactive: 24.5% [at 46.1 µM]	
COc1ccc(OC)c(NC(=O)CN2CCC(C(=O)c3ccc(C)cc3)CC2)c1		inconclusive: 6.51 µM [inhibitor, partial curve, poor fit]
COCCCC1CCN(C(=O)C2CCC(=O)N(CCc3ccccc3)C2)CC1 (stereo unspecified)	inactive: 18.3%	
CCN(CC)Cc1ccc(NC(=O)c2sc3cc(Cl)ccc3c2Cl)cc1		inconclusive: 35.5 µM [inhibitor, single point]

Taken from above.
Value of CCOc1ccc(C(O)Cn2c(=N)n(CCN3CCCCC3)c3ccccc32)cc1 (stereo unspecified) under Potency: active: 18.3 µM
Value of c1coc(CNc2nc3nonc3nc2NCc2ccco2)c1 under Potency: inconclusive: 0.0065 µM [inhibitor, full curve, poor fit]
Value of COC(=O)C/C=C\[C@@H](C)[C@@H](/C=N\OC[C@@H](O)[C@H]1O[C@H]2OC(C)(C)O[C@H]2[C@@H]1O)OC under activity change, negative = inhibition: inactive: 21.9% [at 14.2 µM]

Remaining list, next part:

SMILES	activity change, negative = inhibition	Potency
COc1cccc(C(=O)NCCS(=O)(=O)NCCCc2ccccc2)c1		inconclusive: 5.62 µM [activator, single point]
COC(=O)/C(=C\Nc1ccccc1)NC(=O)c1ccc(Cl)cc1Cl		inconclusive: 11.2 µM [inhibitor, partial curve, poor fit]
COc1cccc(C2CC(C(F)(F)F)n3ncc(C(=O)Nc4c(C)n(C)n(-c5ccccc5)c4=O)c3N2)c1 (stereo unspecified)		inconclusive: 6.31 µM [activator, single point]
COc1ccc(CCN(C)C(=O)COc2ccc(N(C)S(=O)(=O)c3ccc(C)cc3)cc2)cc1OC		inconclusive: 3.98 µM [inhibitor, partial curve, poor fit]
COc1ccccc1OCC(=O)Nc1ccc(S(=O)(=O)N2CCCCCC2)cc1		inconclusive: 11.6 µM [inhibitor, partial curve, poor fit]
Cc1cc(NC(=O)Cn2ccsc2=N)c([N+](=O)[O-])cc1C		inconclusive: 1.41 µM [inhibitor, partial curve, poor fit]
CCN(CC)C(=O)C(=O)c1cccn1-c1cccc(-n2cccc2C(=O)C(=O)N(CC)CC)c1C#N		inconclusive: 4.47 µM [activator, single point]
CN1CCN(S(=O)(=O)c2ccc(SCCOc3ccccc3)nc2)CC1		inconclusive: 29.1 µM [inhibitor, single point]
COc1ccc(/C=C/c2ccncc2)c2ccccc12		inconclusive: 23.1 µM [inhibitor, partial curve, poor fit]
O=C(Cc1cccs1)Nc1ccc(NC(=O)c2ccco2)cc1		inconclusive: 6.51 µM [activator, single point]
COc1ccc(NC(=O)CCCC(=O)OCC(=O)c2cccc(OC)c2)cc1	inactive: -2.2% [at 46.1 µM]	
Cc1ccc(-c2nc3ccccc3n3nnnc23)cc1		inconclusive: 5.01 µM [activator, partial curve]
CCc1nc(C#N)c(N2CCCCC2)o1		inconclusive: 1.46 µM [activator, full curve, poor fit]
COc1ccc(Cn2c(-c3ccc(C)cc3)c[n+]3ccccc23)cc1		inconclusive: 5.62 µM [inhibitor, full curve, poor fit]
Cc1cc(N2CCN(S(=O)(=O)c3ccccc3)CC2)c2ccccc2n1		inconclusive: 7.3 µM [inhibitor, partial curve]
O=c1[nH]nc(SCc2nnc(-c3cccc(Cl)c3)o2)n1C1CCCCC1		inconclusive: 20 µM [inhibitor, partial curve, poor fit]
COc1cccc(CNC(=O)CSCC(=O)Nc2cc(C)on2)c1		inconclusive: 5.62 µM [inhibitor, single point]
COCCCNC(=O)C1CCC(CNS(=O)(=O)c2ccc3c(c2)CC(C)N3C(=O)C2CC2)CC1 (stereo unspecified)		inconclusive: 20 µM [activator, single point]
CCOc1ccc(S(=O)(=O)N(CC(=O)Nc2cccnc2)c2ccc(F)cc2)cc1		inconclusive: 10 µM [inhibitor, partial curve]
CCOC(=O)N1CCN(C(=O)CSCc2ccccc2C)CC1		inconclusive: 31.6 µM [activator, partial curve, poor fit]
CCOc1cccc2sc(N(CCN(C)C)C(=O)CCS(=O)(=O)c3ccccc3)nc12		inconclusive: 12.6 µM [activator, partial curve, poor fit]
Cc1ccc(C(=O)N/C(=C\c2cccs2)C(=O)NCC2CCCO2)cc1C (stereo unspecified)	inactive: -4.19%	
